{"source": "PubChem BioAssay AID504791 (Drosophila RNAi Screening Center, 2011)", "aim": "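Genes whose knock-down strengthens or weakens small-RNA reporter silencing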 (primary screen)", "cell system": "Drosophila S2-derived reporter cells", "reagent": "long dsRNA against Drosophila genes, about 150-250 ng dsRNA per well (siRNA assay); about 80-120 ng (miRNA assay)", "timing": "about 5 days (siRNA assay); about 4 days (miRNA assay)", "treatment": "copper sulfate induction of reporters: 25 µM (siRNA assay); 200 mM stated (miRNA assay), 1-2 days before reading", "detection": "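Dual luciferase assay: Renilla to firefly signal ratio in each well, scaled to the mean ratio of its plate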", "units": "stable assay Renilla, run 1 in luminescence; stable assay firefly, run 1 in luminescence", "call rule": "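First-pass picks had plate-scaled ratios over 1.5 for the siRNA assay, over 1.6 for the miRNA assay, or under 0.6; two distinct dsRNAs had to score alike on retest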", "note": "In all, the deposit lists about 23,000 reagents; below is a random part of those that have a named target and a result. Over the whole deposit, 199 (0.86%) were called active. 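Plate-scaled ratios behind the calls are not deposited; printed light signals are raw; many rows marked increased or decreased are still called inactive.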 Names joined by + are all predicted targets of the reagent. No sequences are given here. Not stated in the record: the direction of the score."}
{"target":"CG8319 (GeneID 41165)","DRSC id":"DRSC16407","stable assay Renilla, run 1":7483,"stable assay firefly, run 1":3.76e5,"call":"inactive"}
{"target":"Phb1 (GeneID 49168)","DRSC id":"DRSC03563","miRNA reporter change":"reporter ratio raised past the hit cutoff","stable assay Renilla, run 1":7494,"stable assay firefly, run 1":1.44e6,"call":"active"}
{"target":"Prp39 (GeneID 43399)","DRSC id":"DRSC15133","stable assay Renilla, run 1":6798,"stable assay firefly, run 1":4.41e5,"call":"inactive"}
{"target":"CG17816 (GeneID 40928)","DRSC id":"DRSC15277","stable assay Renilla, run 1":6055,"stable assay firefly, run 1":4.65e5,"call":"inactive"}
{"target":"stai (GeneID 33863)","DRSC id":"DRSC22235","stable assay Renilla, run 1":10319,"stable assay firefly, run 1":5.42e5,"call":"inactive"}
{"target":"mRpS18A (GeneID 326141)","DRSC id":"DRSC14369","stable assay Renilla, run 1":6259,"stable assay firefly, run 1":4.18e5,"call":"inactive"}
{"target":"fray (GeneID 44233)","DRSC id":"DRSC16950","stable assay Renilla, run 1":7235,"stable assay firefly, run 1":3.44e5,"call":"inactive"}
{"target":"CG5731 (GeneID 34355)","DRSC id":"DRSC02883","stable assay Renilla, run 1":6104,"stable assay firefly, run 1":5.14e5,"call":"inactive"}
{"target":"lin-52 (GeneID 31499)","DRSC id":"DRSC18106","stable assay Renilla, run 1":7491,"stable assay firefly, run 1":4.90e5,"call":"inactive"}
{"target":"Det (GeneID 42077)","DRSC id":"DRSC14489","stable assay Renilla, run 1":7842,"stable assay firefly, run 1":3.84e5,"call":"inactive"}
{"target":"CR32011 + CR32010 + PlexB + 1 more","DRSC id":"DRSC21664","stable assay Renilla, run 1":10048,"stable assay firefly, run 1":5.79e5,"call":"inactive"}
{"target":"run (GeneID 33059)","DRSC id":"DRSC20584","stable assay Renilla, run 1":7563,"stable assay firefly, run 1":4.54e5,"call":"inactive"}
{"target":"run (GeneID 33059)","DRSC id":"DRSC21515","stable assay Renilla, run 1":8689,"stable assay firefly, run 1":4.82e5,"call":"inactive"}
{"target":"Pde1c (GeneID 34594)","DRSC id":"DRSC02421","stable assay Renilla, run 1":7352,"stable assay firefly, run 1":4.15e5,"call":"inactive"}
{"target":"Pde1c (GeneID 34594)","DRSC id":"DRSC02422","stable assay Renilla, run 1":7275,"stable assay firefly, run 1":4.39e5,"call":"inactive"}
{"target":"Pde1c (GeneID 34594)","DRSC id":"DRSC02423","stable assay Renilla, run 1":7619,"stable assay firefly, run 1":3.60e5,"call":"inactive"}
{"target":"Pde1c (GeneID 34594)","DRSC id":"DRSC02424","stable assay Renilla, run 1":7470,"stable assay firefly, run 1":3.88e5,"call":"inactive"}
{"target":"Pde1c (GeneID 34594)","DRSC id":"DRSC02425","stable assay Renilla, run 1":6960,"stable assay firefly, run 1":3.91e5,"call":"inactive"}
{"target":"Pde1c (GeneID 34594)","DRSC id":"DRSC02426","stable assay Renilla, run 1":6130,"stable assay firefly, run 1":4.82e5,"call":"inactive"}
{"target":"CG30049 (GeneID 246416)","DRSC id":"DRSC21345","stable assay Renilla, run 1":8358,"stable assay firefly, run 1":4.65e5,"call":"inactive"}
{"target":"CG14518 (GeneID 43421)","DRSC id":"DRSC14870","stable assay Renilla, run 1":5747,"stable assay firefly, run 1":3.19e5,"call":"inactive"}
{"target":"Srp54 (GeneID 34312)","DRSC id":"DRSC03442","stable assay Renilla, run 1":22830,"stable assay firefly, run 1":4.80e5,"call":"inactive"}
{"target":"Ras64B (GeneID 38494)","DRSC id":"DRSC08689","stable assay Renilla, run 1":6086,"stable assay firefly, run 1":3.65e5,"call":"inactive"}
{"target":"CG13154 (GeneID 36359)","DRSC id":"DRSC06279","stable assay Renilla, run 1":8076,"stable assay firefly, run 1":3.44e5,"call":"inactive"}
{"target":"Cec-Psi1 (GeneID 3772648)","DRSC id":"DRSC21956","stable assay Renilla, run 1":10322,"stable assay firefly, run 1":5.80e5,"call":"inactive"}
{"target":"PCNA2 (GeneID 35257)","DRSC id":"DRSC02030","stable assay Renilla, run 1":6811,"stable assay firefly, run 1":3.39e5,"call":"inactive"}
{"target":"CG12516 (GeneID 43370)","DRSC id":"DRSC14524","stable assay Renilla, run 1":5736,"stable assay firefly, run 1":3.39e5,"call":"inactive"}
{"target":"HP1b (GeneID 31834)","DRSC id":"DRSC18418","stable assay Renilla, run 1":5140,"stable assay firefly, run 1":3.31e5,"call":"inactive"}
{"target":"CtsL1 (GeneID 36546)","DRSC id":"DRSC05462","stable assay Renilla, run 1":7059,"stable assay firefly, run 1":3.99e5,"call":"inactive"}
{"target":"CtsL1 (GeneID 36546)","DRSC id":"DRSC07363","stable assay Renilla, run 1":8238,"stable assay firefly, run 1":3.81e5,"call":"inactive"}
{"target":"Rai1 (GeneID 2768882)","DRSC id":"DRSC20157","stable assay Renilla, run 1":4472,"stable assay firefly, run 1":3.78e5,"call":"inactive"}
{"target":"rdx (GeneID 41704)","DRSC id":"DRSC14526","stable assay Renilla, run 1":4799,"stable assay firefly, run 1":1.85e5,"call":"inactive"}
{"target":"rdx (GeneID 41704)","DRSC id":"DRSC16580","stable assay Renilla, run 1":7475,"stable assay firefly, run 1":3.71e5,"call":"inactive"}
{"target":"rdx (GeneID 41704)","DRSC id":"DRSC23120","stable assay Renilla, run 1":4635,"stable assay firefly, run 1":3.71e5,"call":"inactive"}
{"target":"CR18275 + CG13373","DRSC id":"DRSC17900","stable siRNA reporter change":"reporter ratio lowered past the hit cutoff","stable assay Renilla, run 1":5518,"stable assay firefly, run 1":6.49e5,"call":"inactive"}

Entries above with an active call, once more:
{"target":"Phb1 (GeneID 49168)","DRSC id":"DRSC03563","miRNA reporter change":"reporter ratio raised past the hit cutoff","stable assay Renilla, run 1":7494,"stable assay firefly, run 1":1.44e6,"call":"active"}
